{
  "source": "paper PMC7179302",
  "about": "“Lead Optimization of Dehydroemetine for Repositioned Use in Malaria” (Antimicrobial Agents and Chemotherapy, 2020)",
  "tested_on": "mitochondrial membrane potential of P. falciparum strain K1 trophozoites",
  "assay": "Rhodamine 123 staining for mitochondrial membrane potential, flow cytometry",
  "assay_type": "cell-based, Plasmodium falciparum",
  "protocol": "Changes in mitochondrial membrane potential were measured using rhodamine 123 (excitation wavelength, 511 nm; emission wavelength, 534 nm), a membrane-permeating cationic fluorescent dye ([49]), which accumulates by electrostatic attraction in the mitochondria because of its negative transmembrane potential. A change in the dye’s concentration in the mitochondria is caused by a depolarization event and can be visualized as a shift in the fluorescence intensity of rhodamine 123 ([50]). Draq5 (excitation wavelength, 647 nm; emission wavelength, >665 nm) is a far-red fluorescent DNA dye which is cell permeating and was used to distinguish the parasites in flow cytometry in the allophycocyanin (APC)-Cy7-A channel. SYBR green was not preferred for this experiment as it emits in the same channel as rhodamine 123 and would result in the overlap of emission signals. Fluorescence microscopy was used to visualize the localization of rhodamine 123 within the cytoplasm of the parasites (Fig. 9).\nA decrease in fluorescence intensity measured in the fluorescein isothiocyanate (FITC)-A channel indicates a loss of mitochondrial membrane potential. Atovaquone, a known mitochondrial inhibitor, was used as a control.\nCompounds were then washed away by centrifuging the cultures, and a pellet was prepared for each drug concentration. Pellets were then incubated with 1 ml of 200 nM rhodamine 123 for 1 h, followed by a further incubation with 100 μl of 5 μM Draq5 for 20 min. After a wash with PBS, the experiment was read with a flow cytometer on the FITC channel. Loss of mitochondrial membrane potential was indicated by a decrease in fluorescence intensity.",
  "note": "Structures can show the parent of a compound that is named as a salt.",
  "data": [
    {"smiles": "O=C1C(O)=C([C@H]2CC[C@H](c3ccc(Cl)cc3)CC2)C(=O)c2ccccc21", "note": "[Atovaquone, atovaquone]", "values": [
      {"measurement": "FITC-A mean", "setting": "at IC50", "result": 2809},
      {"measurement": "FITC-A mean (range gate)", "setting": "at IC50", "result": 3705},
      {"measurement": "Parasitaemia", "setting": "at IC50", "result": 1.69, "unit": "%"},
      {"measurement": "FITC-A mean", "setting": "at IC50x10", "result": 2750},
      {"measurement": "FITC-A mean (range gate)", "setting": "at IC50x10", "result": 3821},
      {"measurement": "Parasitaemia", "setting": "at IC50x10", "result": 1.66, "unit": "%"}
    ]},
    {"smiles": "CCC1=C(C[C@H]2NCCc3cc(OC)c(OC)cc32)C[C@H]2c3cc(OC)c(OC)cc3CCN2C1", "note": "[(−)-R,S-dehydroemetine, (S)-2-((R)-6,7-dimethoxy-1,2,3,4-tetrahydro-isoquinolin-1-ylmethyl)-3-ethyl-9,10-dimethoxy-1,6,7,11b-tetrahydro-4H-pyrido[2,1-a]isoquinoline * dihydrobromide]", "values": [
      {"measurement": "FITC-A mean", "setting": "at IC50", "result": 3544},
      {"measurement": "FITC-A mean (range gate)", "setting": "at IC50", "result": 4894},
      {"measurement": "Parasitaemia", "setting": "at IC50", "result": 1.78, "unit": "%"},
      {"measurement": "FITC-A mean", "setting": "at IC50x10", "result": 3243},
      {"measurement": "FITC-A mean (range gate)", "setting": "at IC50x10", "result": 4390},
      {"measurement": "Parasitaemia", "setting": "at IC50x10", "result": 1.67, "unit": "%"}
    ]},
    {"smiles": "CC[C@H]1CN2CCc3cc(OC)c(OC)cc3[C@@H]2C[C@@H]1C[C@H]1NCCc2cc(OC)c(OC)cc21", "note": "[Emetine dihydrochloride, emetine dihydrochloride]", "values": [
      {"measurement": "FITC-A mean", "setting": "at IC50", "result": 3333},
      {"measurement": "FITC-A mean (range gate)", "setting": "at IC50", "result": 4491},
      {"measurement": "Parasitaemia", "setting": "at IC50", "result": 1.73, "unit": "%"},
      {"measurement": "FITC-A mean", "setting": "at IC50x10", "result": 3139},
      {"measurement": "FITC-A mean (range gate)", "setting": "at IC50x10", "result": 4301},
      {"measurement": "Parasitaemia", "setting": "at IC50x10", "result": 1.72, "unit": "%"}
    ]}
  ]
}
